US20080125475A1 (priority 2006, published 2008)

Sequences of proteins named here, by UniProt entry; tags and fusion partners are left off.
UniProt P35372, whole entry: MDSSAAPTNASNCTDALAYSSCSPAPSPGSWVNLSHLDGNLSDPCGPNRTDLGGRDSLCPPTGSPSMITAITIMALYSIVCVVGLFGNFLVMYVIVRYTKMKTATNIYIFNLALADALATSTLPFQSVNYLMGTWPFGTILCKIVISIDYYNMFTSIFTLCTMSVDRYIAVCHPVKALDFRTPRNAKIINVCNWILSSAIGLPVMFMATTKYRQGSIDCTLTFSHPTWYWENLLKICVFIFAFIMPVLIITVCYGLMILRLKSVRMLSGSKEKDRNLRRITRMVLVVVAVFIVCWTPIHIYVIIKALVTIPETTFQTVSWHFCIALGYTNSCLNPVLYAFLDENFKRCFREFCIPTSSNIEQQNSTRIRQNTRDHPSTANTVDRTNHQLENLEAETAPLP

Target: T1, human μ-opiate receptor (Homo sapiens, UniProt P35372)
T1 construct: purchased NEN, Zaventem, Belgium RB-HOM; host or cells: CHO-K1 cells (membrane preparation)
Assay: biochemical
Format: binding

CCC1(c2cccc(O)c2)CCCCN(C)C1 (stereo not shown) [meptazinol]
Ki: 150 nM
